For assay [1], the target named is RAIDD protein (human (endogenous in SK-BR-3 and MCF-7)) (UniProt P78560). Briefly: co-IP; endogenous RAIDD precipitated with anti-RAIDD antibody on protein A/G agarose beads from MCF-7 lysate (1% NP-40, 20 mM TRIS pH 7.4, 1 mM EDTA, 5% glycerol, 250 mM NaCl; 300 ug of cell proteins, overnight); cells incubated 24 h with 300 nM paclitaxel; western blot.
Assay [2] has the same target. Briefly: co-IP; endogenous RAIDD precipitated with anti-RAIDD antibody on protein A/G agarose beads from SK-BR-3 lysate (1% NP-40, 20 mM TRIS pH 7.4, 1 mM EDTA, 5% glycerol, 250 mM NaCl; 300 ug of cell proteins, overnight); cells incubated 24 h with 100 nM paclitaxel; western blot. Background: In western blotting, separated proteins are transferred to a membrane and probed.

The chains behind the UniProt entries cited, without tags or fusion partners.
UniProt P78560: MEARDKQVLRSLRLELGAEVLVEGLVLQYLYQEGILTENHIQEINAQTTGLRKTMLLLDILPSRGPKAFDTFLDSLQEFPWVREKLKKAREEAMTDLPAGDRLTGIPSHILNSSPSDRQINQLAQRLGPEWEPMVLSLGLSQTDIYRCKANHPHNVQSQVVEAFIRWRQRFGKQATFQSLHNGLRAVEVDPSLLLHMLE

These are yes or no findings as the source states them, for the method shown. In cells and extracts the contact can be indirect. Some results given as binding are weak or reduced against the parent protein; the word gives no strength.

B1: PIDD protein (protein, UniProt Q9HB75 1-910)
chain: MAATVEGPELEAAAAAGDASEDSDAGSRALPFLGGNRLSLDLYPGGCQQLLHLCVQQPLQLLQVEFLRLSTHEDPQLLEATLAQLPQSLSCLRSLVLKGGQRRDTLGACLRGALTNLPAGLSGLAHLAHLDLSFNSLETLPACVLQMRGLGALLLSHNCLSELPEALGALPALTFLTVTHNRLQTLPPALGALSTLQRLDLSQNLLDTLPPEIGGLGSLLELNLASNRLQSLPASLAGLRSLRLLVLHSNLLASVPADLARLPLLTRLDLRDNQLRDLPPELLDAPFVRLQGNPLGEASPDAPSSPVAALIPEMPRLFLTSDLDSFPVTPQGCSVTLACGVRLQFPAGATATPITIRYRLLLPEPGLVPLGPHDALLSHVLELQPHGVAFQQDVGLWLLFTPPQARRCREVVVRTRNDNSWGDLETYLEEEAPQRLWAHCQVPHFSWFLVVSRPVSNACLVPPEGTLLCSSGHPGVKVIFPPGATEEPRRVSMQVVRMAGRELQALLGEPEAAVSPLLCLSQSGPPSFLQPVTVQLPLPSGITGLSLDRSRLHLLYWAPPAATWDDITAQVVLELTHLYARFQVTHFSWYWLWYTTKNCVGGLARKAWERLRLHRVNLIALQRRRDPEQVLLQCLPRNKVDATLRRLLERYRGPEPSDTVEMFEGEEFFAAFERGIDVDADRPDCVEGRICFVFYSHLKNVKEVYVTTTLDREAQAVRGQVSFYRGAVPVRVPEEAEAARQRKGADALWMATLPIKLPRLRGSEGPRRGAGLSLAPLNLGDAETGFLTQSNLLSVAGRLGLDWPAVALHLGVSYREVQRIRHEFRDDLDEQIRHMLFSWAERQAGQPGAVGLLVQALEQSDRQDVAEEVRAVLELGRRKYQDSIRRMGLAPKDPALPGSSAPQPPEPAQA
B1: the binding entry in assay [1] and in assay [2] was “binds” throughout.

Source of the values: PMC3685568.
